Results: patent US20230312741A1
Numbering of substitutions follows the chain as printed. These are yes or no findings as the source states them, for the method shown. Some results given as binding are weak or reduced against the parent protein; the word gives no strength. Each block holds one binder with its values, some of them ahead of it.

Experiments:
Assay in all cases: flow cytometry, GS-CHO cells with CD73 mutant
[1] = molecular target: T1, CD73 mutant L157A/S155A/L159A/Q153A (human) (UniProt P21589)
T1 sequence: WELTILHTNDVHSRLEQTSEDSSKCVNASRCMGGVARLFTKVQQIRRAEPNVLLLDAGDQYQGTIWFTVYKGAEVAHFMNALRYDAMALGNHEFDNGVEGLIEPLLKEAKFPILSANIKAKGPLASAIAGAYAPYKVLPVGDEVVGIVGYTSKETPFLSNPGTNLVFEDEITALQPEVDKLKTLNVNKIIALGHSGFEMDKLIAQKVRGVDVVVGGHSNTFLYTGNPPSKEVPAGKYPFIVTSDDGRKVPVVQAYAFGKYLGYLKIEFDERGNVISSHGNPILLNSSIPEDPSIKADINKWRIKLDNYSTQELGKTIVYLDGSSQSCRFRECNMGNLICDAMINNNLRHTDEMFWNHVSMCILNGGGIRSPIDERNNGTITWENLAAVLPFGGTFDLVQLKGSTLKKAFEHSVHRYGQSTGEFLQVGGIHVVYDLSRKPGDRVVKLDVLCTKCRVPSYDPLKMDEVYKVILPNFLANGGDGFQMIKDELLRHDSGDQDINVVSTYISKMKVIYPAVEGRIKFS

[2] = molecular target: T2, CD73 mutant K179A/E180A (human) (UniProt P21589)
T2 sequence: T1 sequence with A127Q, A129S, A131L, A133L, K153A, E154A

[3] = molecular target: T3, CD73 mutant K291A/E293A (human) (UniProt P21589)
T3 sequence: T1 sequence with A127Q, A129S, A131L, A133L, K265A, E267A

[4] = molecular target: T4, CD73 mutant R109A/K136A (human) (UniProt P21589)
T4 sequence: T1 sequence with R83A, K110A, A127Q, A129S, A131L, A133L

[5] = molecular target: T5, CD73 mutant L157A/S155A/L159A (human) (UniProt P21589)
T5 sequence: T1 sequence with A127Q

binding [1]: binds | binding [2]: binds | binding [3]: binds | binding [4]: binds | binding [5]: binds
B1: ADI-37505 (antibody, human IgG4 S228P, kappa, F234A L235A, V domains shown)
VH: QVQLVESGGGLVQPGGSLRLSCAASGFTFSNYAMTWVRQAPGKGLEWVSAISGRGTATYYADSVKGRFTISRDNSKNTLYLQMNSLRAEDTAVYYCARGGPYGSGSYWDTFDYWGQGTLVTVSS
VL: EIVMTQSPATLSVSPGERATLSCRASQSVSSNLAWYQQKPGQAPRLLIYGASTRATGIPARFSGSGSGTEFTLTISSLQSEDFAVYYCQQYTNHYTFGGGTKVEIKR

binding [1]: binds | binding [2]: binds | binding [3]: binds | binding [4]: binds | binding [5]: binds
B2: ADI-37506 (antibody, human IgG4 S228P, kappa, F234A L235A, V domains shown)
VH: B1 VH with Q1E, V5L, Y32L, T35S, G55A, A57S
VL: B1 VL
